# PubChem BioAssay AID493246 – Drosophila RNAi Screening Center | 2011
# Aim: 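Identify essential fly genes by loss of cell viability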 (primary screen)
# Cell system: Drosophila Kc and S2R+ cells
# Reagent: long dsRNA against Drosophila genes
# Measurement: 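Cell number per well after knock-down, printed as raw plate values; calls were based on per-plate z-scores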
# Reading the numbers: Kc cell number and S2R+ cell number: higher = more cells remaining
# Active means: 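Active when the per-plate z-score of cell number is 3 or more in the direction of fewer cells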
# In all, the deposit lists about 21,000 reagents; below is a random part of those with a known target gene and a result. In the full data, 429 (2%) are marked active. 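Values are raw and not normalised between plates; calls rest on per-plate z-scores that were not deposited.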 Unmarked entries are inactive. Names joined by + are all predicted targets of the reagent. Reagent sequences are not shown. Not stated in the record: the amount of reagent, the time to read-out.
gene,amplicon,"Kc cell number, rep 1","Kc cell number, rep 2","S2R+ cell number, rep 1","S2R+ cell number, rep 2"
brv2 (brivido-2),DRSC10226,1.50e6,1.20e6,1.13e6,1.29e6
CG3402,DRSC08567,1.30e6,1.48e6,1.05e6,1.25e6
CG7173,DRSC11812,1.36e6,1.46e6,8.34e5,9.09e5
CG10863,DRSC08145,1.43e6,1.50e6,1.19e6,1.17e6
Ctps (CTP synthase),DRSC09342,1.34e6,1.47e6,1.15e6,1.31e6
Ctps (CTP synthase),DRSC10728,1.40e6,1.41e6,1.11e6,1.19e6
Ctps (CTP synthase),DRSC10729,1.51e6,1.47e6,1.24e6,1.35e6
CG10470,DRSC02061,1.50e6,1.58e6,1.25e6,3.00e5
Axn (Axin),DRSC14120,1.43e6,1.27e6,9.79e5,1.02e6
santa-maria,DRSC00994,1.51e6,1.54e6,9.99e5,1.12e6
santa-maria,DRSC02180,1.26e6,1.33e6,6.24e5,8.32e5
Trpgamma (Transient receptor potential cation channel gamma),DRSC03626,1.50e6,1.65e6,1.18e6,1.31e6
Arp53D (Actin-related protein 53D),DRSC05923,1.61e6,1.63e6,1.29e6,1.46e6
RIOK2 (RIO kinase 2),DRSC14413,1.41e6,1.45e6,1.03e6,1.14e6
GstO1 (Glutathione S transferase O1),DRSC10688,1.54e6,1.71e6,1.29e6,1.31e6
CG11275,DRSC04095,1.75e6,1.97e6,1.51e6,3.69e5
CkIIalpha (casein kinase IIalpha),DRSC11946,1.35e6,1.42e6,1.01e6,1.12e6
CG2116,DRSC18206,5.67e5,,9.18e5,
CG14180 (retired record),DRSC10179,1.07e6,1.13e6,8.01e5,9.01e5
CG32576,DRSC19136,1.43e6,1.72e6,1.05e6,1.18e6
CG42724,DRSC12567,1.65e6,1.71e6,1.15e6,1.25e6
CG15891 + CG15892,DRSC18095,5.58e5,,8.67e5,
CG15891 + CG15892,DRSC18096,1.51e6,1.48e6,1.05e6,1.17e6
Ppt2 (Palmitoyl-protein Thioesterase 2),DRSC02786,1.39e6,1.55e6,1.29e6,1.23e6
Eaat2 (Excitatory amino acid transporter 2),DRSC00032,1.55e6,1.56e6,1.09e6,1.22e6
Eaat2 (Excitatory amino acid transporter 2),DRSC00749,1.31e6,1.30e6,9.34e5,1.03e6
CG18518,DRSC01509,1.52e6,1.57e6,9.48e5,1.17e6
EMC2B (ER membrane protein complex subunit 2B),DRSC15506,1.24e6,1.27e6,1.19e6,1.34e6
CG8149,DRSC16391,1.43e6,1.46e6,1.15e6,1.23e6
CG13511,DRSC04153,1.62e6,1.67e6,1.37e6,1.34e6
Nagk (N-acetylglucosamine kinase),DRSC15994,1.60e6,1.68e6,1.43e6,1.50e6
CG4408,DRSC15574,1.56e6,1.78e6,1.23e6,1.35e6
pip (pipe),DRSC11382,1.36e6,1.49e6,1.22e6,1.34e6
beat-IV (beaten path IV),DRSC14195,1.57e6,1.64e6,1.26e6,1.33e6
beat-IV (beaten path IV),DRSC14673,1.63e6,1.61e6,9.67e5,1.10e6
CG3434,DRSC10365,1.35e6,1.43e6,1.16e6,1.18e6
ninaD (neither inactivation nor afterpotential D),DRSC02886,1.64e6,1.95e6,1.23e6,1.39e6

11 entries from above, set out differently.
gene | amplicon | Kc cell number, rep 1 | Kc cell number, rep 2 | S2R+ cell number, rep 1 | S2R+ cell number, rep 2
CG42724 | DRSC12567 | 1.65e6 | 1.71e6 | 1.15e6 | 1.25e6
CG15891 + CG15892 | DRSC18095 | 5.58e5 | – | 8.67e5 | –
CG15891 + CG15892 | DRSC18096 | 1.51e6 | 1.48e6 | 1.05e6 | 1.17e6
Ppt2 (Palmitoyl-protein Thioesterase 2) | DRSC02786 | 1.39e6 | 1.55e6 | 1.29e6 | 1.23e6
Eaat2 (Excitatory amino acid transporter 2) | DRSC00032 | 1.55e6 | 1.56e6 | 1.09e6 | 1.22e6
Eaat2 (Excitatory amino acid transporter 2) | DRSC00749 | 1.31e6 | 1.30e6 | 9.34e5 | 1.03e6
CG18518 | DRSC01509 | 1.52e6 | 1.57e6 | 9.48e5 | 1.17e6
EMC2B (ER membrane protein complex subunit 2B) | DRSC15506 | 1.24e6 | 1.27e6 | 1.19e6 | 1.34e6
CG8149 | DRSC16391 | 1.43e6 | 1.46e6 | 1.15e6 | 1.23e6
CG13511 | DRSC04153 | 1.62e6 | 1.67e6 | 1.37e6 | 1.34e6
Nagk (N-acetylglucosamine kinase) | DRSC15994 | 1.60e6 | 1.68e6 | 1.43e6 | 1.50e6

The results go on.
gene,amplicon,"Kc cell number, rep 1","Kc cell number, rep 2","S2R+ cell number, rep 1","S2R+ cell number, rep 2"
Acyp (Acylphosphatase),DRSC01861,1.65e6,1.68e6,1.35e6,1.46e6
modSP (modular serine protease),DRSC16726,1.28e6,1.42e6,1.14e6,1.29e6
modSP (modular serine protease),DRSC16857,1.41e6,1.44e6,1.16e6,1.29e6
CG17005,DRSC02556,1.51e6,1.67e6,1.25e6,1.36e6
CG13062,DRSC09945,1.51e6,1.43e6,1.19e6,1.38e6
CG5516,DRSC15826,1.37e6,1.57e6,1.08e6,1.20e6
CG5191,DRSC15733,1.53e6,1.61e6,1.18e6,1.25e6
CG5191,DRSC15734,1.32e6,1.34e6,1.01e6,1.14e6
CG13177,DRSC06303,1.65e6,1.60e6,1.21e6,1.32e6
Sf3a1 (Splicing factor 3a subunit 1),DRSC15166,1.27e6 (active),1.39e6,6.01e5,7.14e5
CG13681 (retired record),DRSC08906,1.45e6,1.48e6,1.12e6,1.29e6
CG13681 (retired record),DRSC08907,1.52e6,1.56e6,1.14e6,1.34e6
CG13681 (retired record),DRSC10038,1.32e6,1.22e6,1.27e6,1.24e6
CG13681 (retired record),DRSC10039,1.32e6,1.50e6,1.24e6,1.28e6
CG13681 (retired record),DRSC10927,1.43e6,1.37e6,1.26e6,1.32e6
CG13681 (retired record),DRSC10929,1.47e6,1.60e6,1.38e6,1.36e6
CG8028,DRSC20075,1.59e6,1.58e6,1.09e6,1.21e6
Ubr1 (Ubr1 ubiquitin ligase),DRSC20148,1.58e6,1.60e6,9.99e5,1.14e6
Trmt6 (tRNA methyltransferase 6 non-catalytic subunit),DRSC03272,1.55e6,1.47e6,1.10e6,1.27e6
rnh1 (ribonuclease H1),DRSC07673,1.42e6,1.52e6,1.15e6,1.20e6
Inx7 (Innexin 7),DRSC18784,1.49e6,1.46e6,1.00e6,1.10e6
CG31219,DRSC15140,1.20e6,1.15e6,1.06e6,1.18e6
roh (reduction of Rh1),DRSC04003,1.26e6,1.33e6,7.84e5,9.03e5
CG18747,DRSC15384,1.34e6,1.48e6,1.33e6,1.47e6
sordd2 + sordd1,DRSC20136,6.03e5,,9.03e5,
CG33191 + Pif1B,DRSC12706,1.37e6,1.47e6,1.08e6,1.30e6
CG31534 (retired record),DRSC12141,1.47e6,1.42e6,1.44e6,1.56e6
CG31534 (retired record),DRSC12289,1.39e6,1.64e6,1.24e6,1.41e6
Rgk1 (retired record),DRSC07343,1.39e6,1.53e6,1.15e6,1.21e6
Rgk1 (retired record),DRSC07344,4.85e5 (active),1.31e6,4.69e5,5.53e5
CG15468,DRSC18051,1.53e6,1.60e6,1.11e6,1.20e6
Hr38 (Hormone receptor-like in 38),DRSC03345,1.53e6,1.54e6,1.03e6,3.01e5
CG8888,DRSC07294,1.54e6,1.59e6,1.12e6,1.11e6
CG8888,DRSC07295,1.65e6,1.71e6,1.25e6,1.36e6
CG12926,DRSC06239,1.55e6,1.50e6,1.12e6,1.20e6
CG10700,DRSC02096,1.50e6,1.69e6,1.37e6,2.90e5
cbc (crowded by cid),DRSC06957,1.49e6,1.67e6,1.15e6,1.14e6
CG12659,DRSC17862,1.61e6,1.60e6,1.15e6,1.22e6
